Paper doi:10.1101/2025.03.24.644971
Results are given in words; binding and its absence hold for the method and conditions named. Binding seen in cells or lysates may run through a third protein. These calls come from enrichment with a bait or labelling near it, and not all partners need be listed.

B1: Nri1 (Candida-specific RSC subunit) (protein, UniProt Q5ALY5 1-618)
chain: MDVRRCRRCKRKRLDDEPDEVRQYKTCAKCRIIERNKKNSRKPLAEETMLYGLKQFREQQSAENYIEEEGLLKDEFFKRYHNKPFNYQEEITKVLNNPNYVPPVLHNHNTDEVVTSSNGNTTGPKYQMTMKTNNTTGVQPPIKSRKQQQQPQPQQQQQQTQQHRHQQHQHQQQTHHHNQLHHQQETVIVDDEEDLYKILSELGNDDNSAKNDSKIIKENLDPYANDNVYDDFQKYLTTILEKLHSDKDIKNLVYLKEFNEVFTTNMSKFDAYTKDRTTLYQSIRLSEKQFRSHLLSNIRAMYIDPIIACLGLLYKQEYTNINEFKSTTSIKCGFSYIAKSAEQDEIKNLKESSIILVYNKKYHLLVIKLNHTSYRPSEIIYPNEFKQKVASVFGLLQMEEYSPESTAIFQNINLDYNAITGGLVYDKLVSVSHTYSEELQKFLKGLDKDVFIADFVNYEKVFKLDEENGVNDDDDDMDVDEEKPENKEEEQPQQQEQEGDVDVKMDVEEDGDHELENDVSQANKNDNESESVGQTEEEEEEEEEEEIQVEEAHVPSDELELALGESLAIENDNESENEINQTTTTFVSNENKEDDNNNDDILTKKESTVEVLDPVFQF
B2: Nri2 (Candida-specific RSC subunit) (protein, UniProt Q59T87 1-239)
chain: MVKNTSYKKQKLSSRNRIINQEVPLFPPTKYEKSKATLKHFPSSIVNGVTAEGGLYSLTFKSINCASFVENNELMKTVFKVPKLELSKVTDNDDVDKLKNWKQTLENDINELKKSDSNVANTNIVSDLQNELQTDLENNGNNLATFGEKLADSFVVNINISDGNYKVIQDVIIPGLQVDTFEDVTNPDLSEYEKITLSDTQNEEKEETGNKQETEVGQEVESEQKDENKTEQTSQPTST

Target: C. albicans Rsc1 mutated in BD2 (K238E/K241E/K242E), Flag-tagged (C. albicans)
Test: affinity purification with mass spectrometry

| Binder | binding |
| --- | --- |
| B1 | binds |
| B2 | binds |
